pIC50: −log10 of the molar value.
Target: T1, Squalene synthase (Rattus norvegicus, UniProt Q02769)
T1 sequence (Q02769 whole entry): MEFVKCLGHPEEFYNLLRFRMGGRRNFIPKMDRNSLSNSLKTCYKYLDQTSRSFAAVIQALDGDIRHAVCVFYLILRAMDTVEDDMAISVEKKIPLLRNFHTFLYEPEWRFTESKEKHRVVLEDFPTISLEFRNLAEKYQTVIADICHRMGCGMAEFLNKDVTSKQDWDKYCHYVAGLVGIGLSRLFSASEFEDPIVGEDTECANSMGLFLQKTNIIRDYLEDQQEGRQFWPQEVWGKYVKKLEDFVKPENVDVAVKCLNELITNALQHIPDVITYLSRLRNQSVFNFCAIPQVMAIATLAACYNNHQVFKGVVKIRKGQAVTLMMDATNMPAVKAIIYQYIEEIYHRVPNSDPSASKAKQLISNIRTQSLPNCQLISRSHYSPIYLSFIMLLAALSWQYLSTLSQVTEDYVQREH
Experiment: Inhibitory concentration against mammalian Squalene synthase

pIC50: 7.59
SMILES: C=C(CC[C@]12O[C@H](C(=O)O)[C@@](O)(C(=O)O)[C@](C(=O)O)(O1)[C@H](O)[C@H]2O)[C@@H](OC(C)=O)[C@H](C)Cc1ccccc1
